# For at least one entry, the source does not settle the construct or the ends of the probe. For some assays here: A weaker result is weaker than the reference pair of the same experiment. For some assays here: At least one verdict rests on a figure or table, not on a statement of the authors.
# Amino acid sequences for entries named in this document (tags omitted). A change or cut given only in a name is not applied to a line headed by its entry.
# UniProt Q15554: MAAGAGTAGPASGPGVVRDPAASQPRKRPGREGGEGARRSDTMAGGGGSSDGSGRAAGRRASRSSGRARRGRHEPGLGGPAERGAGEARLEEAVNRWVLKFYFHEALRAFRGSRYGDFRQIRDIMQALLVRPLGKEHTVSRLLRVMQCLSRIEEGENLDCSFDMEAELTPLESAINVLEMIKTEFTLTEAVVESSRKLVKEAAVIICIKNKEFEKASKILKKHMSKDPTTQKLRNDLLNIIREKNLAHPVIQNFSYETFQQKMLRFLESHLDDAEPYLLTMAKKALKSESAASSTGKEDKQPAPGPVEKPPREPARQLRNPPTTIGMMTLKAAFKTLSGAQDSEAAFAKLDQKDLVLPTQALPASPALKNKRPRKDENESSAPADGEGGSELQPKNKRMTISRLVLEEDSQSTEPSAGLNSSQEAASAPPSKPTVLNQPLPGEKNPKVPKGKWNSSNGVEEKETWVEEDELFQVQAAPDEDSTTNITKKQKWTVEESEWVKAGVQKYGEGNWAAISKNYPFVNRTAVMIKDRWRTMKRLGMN
# UniProt Q06609, whole entry: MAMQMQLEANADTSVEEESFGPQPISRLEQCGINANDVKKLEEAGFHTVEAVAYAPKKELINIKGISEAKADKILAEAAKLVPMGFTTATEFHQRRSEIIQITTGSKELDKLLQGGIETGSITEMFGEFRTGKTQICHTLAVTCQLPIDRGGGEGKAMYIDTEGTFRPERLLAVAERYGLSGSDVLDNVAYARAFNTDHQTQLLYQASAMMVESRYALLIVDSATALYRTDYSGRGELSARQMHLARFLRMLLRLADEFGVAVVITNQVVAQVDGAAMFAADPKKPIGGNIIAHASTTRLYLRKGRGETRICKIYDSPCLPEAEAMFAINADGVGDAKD
# UniProt Q9NUX5: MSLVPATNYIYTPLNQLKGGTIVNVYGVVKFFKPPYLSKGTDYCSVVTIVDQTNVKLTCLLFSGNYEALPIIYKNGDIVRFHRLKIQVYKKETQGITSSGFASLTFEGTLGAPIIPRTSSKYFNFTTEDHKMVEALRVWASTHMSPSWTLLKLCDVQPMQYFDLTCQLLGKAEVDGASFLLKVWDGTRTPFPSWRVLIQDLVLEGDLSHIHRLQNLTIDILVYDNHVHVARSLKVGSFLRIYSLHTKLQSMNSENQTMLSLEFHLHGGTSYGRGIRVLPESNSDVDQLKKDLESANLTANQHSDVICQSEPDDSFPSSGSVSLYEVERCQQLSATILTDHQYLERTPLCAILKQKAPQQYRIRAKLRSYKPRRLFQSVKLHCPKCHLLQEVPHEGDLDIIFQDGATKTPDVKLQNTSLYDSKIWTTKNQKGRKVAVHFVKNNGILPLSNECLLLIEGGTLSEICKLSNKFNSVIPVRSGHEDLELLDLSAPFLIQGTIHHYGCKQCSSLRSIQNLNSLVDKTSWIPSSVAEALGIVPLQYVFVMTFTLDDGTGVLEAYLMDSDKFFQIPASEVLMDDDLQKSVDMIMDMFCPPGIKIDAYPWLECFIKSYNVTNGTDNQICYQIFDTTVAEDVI
# How the values were obtained:
# TRF2 = TRF2 (UniProt Q15554); assay: single-molecule colocalization, RNase H protection; settings: TRF2 prebound to duplex, protection lost after proteinase K; Single molecule: T50 (10 mM Tris-HCl pH 7.5, 50 mM NaCl); imaging 10 mM Tris-HCl pH 7.5, 100 mM NaCl; recombinant protein; protein details: N-terminal His6; letters put together from the description
# RAD51 = RAD51 (UniProt Q06609); assay: EMSA; settings: 1 mM Mg2+, 1 mM ATP, RAD51 EMSA: 50 mM Tris-HCl pH 7.5, 50 mM KCl, 1 mM MgCl2, 1 mM ATP, 37 C 10 min, 0.8% TBE agarose + 10 mM KCl at 4 C, recombinant protein
# POT1 (Homo sapiens) = POT1 (Homo sapiens) (UniProt Q9NUX5); assay: single-molecule binding; settings: stably bound after 6x washes; Single molecule: T50 (10 mM Tris-HCl pH 7.5, 50 mM NaCl); imaging 10 mM Tris-HCl pH 7.5, 100 mM NaCl; recombinant protein; protein details: GST; letters put together from the description
sequence,measurement,setting,value
TGGCGACGGCAGCGAGGCTTAGGGTTAGGGTTAGGGTTAGGG / CCCTAACCCTAACCCTAACCCTAAGCCTCGCTGCCGTCGCCA / UGGCGACGGCAGCGAGGCUUAGGGUUAGGGUUAGGGUUAGGG [telomeric duplex with annealed TERRA-18],binding result,TRF2,binds
TGGCGACGGCAGCGAGGCTTAGGGTTAGGGTTAGGGTTAGGG [G4-18 DNA],binding result,"RAD51; lower affinity than TERRA-18, unbound band remains at 1.5 uM RAD51, label: 3' Cy3, folded or branched DNA",binds more weakly
TGGCGACGGCAGCGAGGCTTAGGGTTAGGGTTAGGGTTAGGG [G4-18-8oxoG],binding result,"RAD51; mainly lower bound band, unbound band remains at 1.5 uM RAD51, 8-oxoguanine at position 29, single-stranded DNA",binds more weakly
TGGCGACGGCAGCGAGGCTTAGGGTTAGGGTTAGGGTTAGGGTTAGGGTTAGGGTTAGGGTTAGGG / CCCTAACCCTAACCCTAACCCTAAGCCTCGCTGCCGTCGCCA [telomeric duplex with G4 overhang],binding result,POT1 (Homo sapiens),binds
UUUUUUUUUUUUUUUUUUUUUUUUUUUUUUUUUUUUUUUU [poly U40],binding result,"RAD51; mainly lower bound band, unbound band remains at 1.5 uM RAD51",binds more weakly

# From publication PMC11417404
